Data: US7205150B2, “Transgenic plants over-expressing plant ADP-glucose pyrophosphatase” (Universidad Publica de Navarra, priority 2000, dated 2007)

System: AGPPase (soluble and particulate isoforms)
Assay: AGPPase enzymatic assay (two-step spectrophotometric determination of G1P produced from ADPG)
Format: biochemical, barley (Hordeum vulgare), tomato (Lycopersicon sculentum)
Conditions: ADPG hydrolysis

B1: Soluble AGPPase: soluble isoform of AGPPase purified from barley leaves, a germin-like glycoprotein (protein)
chain: MANAMLLPVLVSFLVLPFSAMALTQDFCVADLSCSDTPAGYPCKTGVGAGDFYYHGLAAAGNTSNLIKAAVTPAFVGQFPGVNGLGISAARLDIAVGGVVPMHTHPAASELLFVTEGTILAGFISSSSNTVYTKTLYKGDIMVFPQGLLHYQYNGGSSSAVALVAFSGPNPGLQITDYALFANNLPSAVVEKVTFLDDAQVKKLKSVLGGSG
modifications: Hordeum vulgare cv. Scarlett; Soluble AGPPase deduced from cDNA
notes: soluble isoform of AGPPase purified from barley leaves, a germin-like glycoprotein
  Reaction Kqq′: 110
